# Measurements reported in the supplement of paper PMC8728848.
# The list shows a part of the results.
# B1: truncCC1G-10077 (Coprinopsis cinerea) (protein)
# chain: MHHHHHHHHPLPSPGPGWVLIQNGGTGKFLCSTPSGDIGTADGPETVYDYSVQWRFIQREYTGVYHVVNRATGAYLRQIGTSMPSIGLAEENDDELKDWWMLETYDNSEIGLASIISRWTGNVLDHYGGVSVQALDNNTENSYRSWAIIPARDWLTSFSLVNGQGGLCLAAQYAREETRLSTTANVNDFHAQWVFRKPSGSSGYTIQNKYNNHYVGGTSARWELVVCCNKYFGIRNTSTQKYLAIEDGQVTFQDQDMTDRKQCWELCSGRATDTSGNDYDLIYMDDDLLEVMIPWVGDKQGDLKHYIEKRATKKPPKDKGGWQLPAAGLIKKPKFNDIRQLLQELIEQWEWDVVNEEREQIQTLVSIDEAEARRLLGRRPHPDIVAAYQRSRSSTLFRIDRQGYFNIAGDRYVNIQGQYGDDSYFHIALPVGVRFGREQIRRFLRDSLDRSTSVTITPTTCKPPSGGPDYNRDPDSDGDNSWIKWTIAVVGTSAIKHSEL
# Key:
# Assay in all cases: glycan array binding signal (z-score within array); higher = stronger binding
# Conditions in all cases: glycan notation: IUPAC condensed, linker removed
# [1] = target: Gal(b1-3)GlcNAc(b1-2)Man(a1-3)[Gal(b1-3)GlcNAc(b1-2)Man(a1-6)]Man(b1-4)GlcNAc(b1-4)[Fuc(a1-6)]GlcNAc
# Outline: (§1)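 Glycan array data were curated from 3228 arrays in the Consortium for Functional Glycomics database and kept only where the protein sequence was available. Glycan names were converted to IUPAC-condensed notation, and columns mapping to the same glycan were averaged. The binding signal is a within-array Z-score, averaged across arrays of the same protein sequence at different concentrations or buffers and across linkers. Negative Z-scores can be read as non-binding.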
# [2] = target: Gal(b1-3)GlcNAc(b1-2)Man(a1-3)[GlcNAc(b1-4)][Gal(b1-3)GlcNAc(b1-2)Man(a1-6)]Man(b1-4)GlcNAc(b1-4)GlcNAc
# Outline: as §1
# [3] = target: Gal(b1-3)GlcNAc(b1-2)[Gal(b1-3)GlcNAc(b1-6)]Man(a1-6)[Gal(b1-3)GlcNAc(b1-2)Man(a1-3)]Man(b1-4)GlcNAc(b1-4)GlcNAc
# Outline: as §1
# [4] = target: Gal(b1-3)GlcNAc(b1-3)Gal(b1-3)GlcNAc
# Outline: as §1
# [5] = target: Gal(b1-3)GlcNAc(b1-3)Gal(b1-4)Glc
# Outline: as §1
# [6] = target: Gal(b1-3)GlcNAc(b1-3)Gal(b1-4)GlcNAc
# Outline: as §1
# [7] = target: Gal(b1-3)GlcNAc(b1-3)Gal(b1-4)GlcNAc(b1-2)Man(a1-3)[Gal(b1-3)GlcNAc(b1-3)Gal(b1-4)GlcNAc(b1-2)Man(a1-6)]Man(b1-4)GlcNAc(b1-4)GlcNAc
# Outline: as §1
# [8] = target: Gal(b1-3)GlcNAc(b1-3)Gal(b1-4)GlcNAc(b1-2)[Gal(b1-3)GlcNAc(b1-3)Gal(b1-4)GlcNAc(b1-6)]Man(a1-6)[Gal(b1-3)GlcNAc(b1-3)Gal(b1-4)GlcNAc(b1-2)Man(a1-3)]Man(b1-4)GlcNAc(b1-4)[Fuc(a1-6)]GlcNAc
# Outline: as §1
# [9] = target: Gal(b1-3)GlcNAc(b1-3)Gal(b1-4)GlcNAc(b1-3)Gal(b1-4)GlcNAc(b1-2)[Gal(b1-3)GlcNAc(b1-3)Gal(b1-4)GlcNAc(b1-3)Gal(b1-4)GlcNAc(b1-6)]Man(a1-6)[Gal(b1-3)GlcNAc(b1-3)Gal(b1-4)GlcNAc(b1-3)Gal(b1-4)GlcNAc(b1-2)Man(a1-3)]Man(b1-4)GlcNAc(b1-4)[Fuc(a1-6)]GlcNAc
# Outline: as §1
# [10] = target: Gal(b1-3)GlcNAc(b1-3)Gal(b1-4)GlcNAc(b1-6)[Gal(b1-3)GlcNAc(b1-3)]Gal(b1-4)Glc
# Outline: as §1
# [11] = target: Gal(b1-3)GlcNAc(b1-3)Gal(b1-4)[Fuc(a1-3)]GlcNAc
# Outline: as §1
# [12] = target: Gal(b1-3)GlcNAc(b1-3)Gal(b1-4)[Fuc(a1-3)]GlcNAc(b1-6)[Gal(b1-3)GlcNAc(b1-3)]Gal(b1-4)Glc
# Outline: as §1
# [13] = target: Gal(b1-3)GlcNAc(b1-3)GalNAc
# Outline: as §1
# [14] = target: Gal(b1-3)GlcNAc(b1-6)Gal(b1-4)GlcNAc
# Outline: as §1
# [15] = target: Gal(b1-3)GlcNAc(b1-6)GalNAc
# Outline: as §1
# [16] = target: Gal(b1-3)GlcNAc(b1-6)[Gal(b1-3)]GalNAc
# Outline: as §1
# Gal(b1-3)GlcNAc6S = target: Gal(b1-3)GlcNAc6S
# Outline: as §1
# [17] = target: Gal(b1-3)[Fuc(a1-4)]GlcNAc
# Outline: as §1
# [18] = target: Gal(b1-3)[Fuc(a1-4)]GlcNAc(b1-2)Man
# Outline: as §1
# [19] = target: Gal(b1-3)[Fuc(a1-4)]GlcNAc(b1-2)Man(a1-3)[Gal(b1-3)[Fuc(a1-4)]GlcNAc(b1-2)Man(a1-6)]Man(b1-4)GlcNAc(b1-4)[Fuc(a1-6)]GlcNAc
# Outline: as §1
# [20] = target: Gal(b1-3)[Fuc(a1-4)]GlcNAc(b1-3)Gal(b1-3)[Fuc(a1-4)]GlcNAc
# Outline: as §1
# [21] = target: Gal(b1-3)[Fuc(a1-4)]GlcNAc(b1-3)Gal(b1-4)[Fuc(a1-3)]GlcNAc
# Outline: as §1
# [22] = target: Gal(b1-3)[Fuc(a1-4)]GlcNAc(b1-6)GalNAc
# Outline: as §1
# [23] = target: Gal(b1-3)[GlcNAc(b1-6)]GalNAc
# Outline: as §1
# [24] = target: Gal(b1-3)[Neu5Ac(a2-6)]GalNAc
# Outline: as §1
# [25] = target: Gal(b1-3)[Neu5Ac(a2-6)]GlcNAc(b1-4)Gal(b1-4)Glc
# Outline: as §1
# [26] = target: Gal(b1-3)[Neu5Ac(b2-6)]GalNAc
# Outline: as §1
# Gal(b1-4)Gal = target: Gal(b1-4)Gal
# Outline: as §1
# [27] = target: Gal(b1-4)GalNAc(a1-3)[Fuc(a1-2)]Gal(b1-4)GlcNAc
# Outline: as §1
# [28] = target: Gal(b1-4)GalNAc(b1-3)[Fuc(a1-2)]Gal(b1-4)GlcNAc
# Outline: as §1
# Gal(b1-4)Glc = target: Gal(b1-4)Glc
# Outline: as §1
# Gal(b1-4)Glc6S = target: Gal(b1-4)Glc6S
# Outline: as §1
# Gal(b1-4)GlcNAc = target: Gal(b1-4)GlcNAc
# Outline: as §1
# [29] = target: Gal(b1-4)GlcNAc(a1-6)Gal(b1-4)GlcNAc
# Outline: as §1
# Gal(b1-4)GlcNAc(b1-2)Man = target: Gal(b1-4)GlcNAc(b1-2)Man
# Outline: as §1
# [30] = target: Gal(b1-4)GlcNAc(b1-2)Man(a1-3)Man(b1-4)GlcNAc(b1-4)GlcNAc
# Outline: as §1
# [31] = target: Gal(b1-4)GlcNAc(b1-2)Man(a1-3)[Gal(b1-4)GlcNAc(b1-2)Man(a1-6)]Man(b1-4)GlcNAc(b1-4)GlcNAc
# Outline: as §1
binder,measurement,setting,value
B1,glycan array binding signal (z-score),[1],0.426
same,glycan array binding signal (z-score),[2],2.75
same,glycan array binding signal (z-score),[3],0.467
same,glycan array binding signal (z-score),[4],-0.851
same,glycan array binding signal (z-score),[5],-0.72
same,glycan array binding signal (z-score),[6],-0.687
same,glycan array binding signal (z-score),[7],-0.039
same,glycan array binding signal (z-score),[8],1.4
same,glycan array binding signal (z-score),[9],1.12
same,glycan array binding signal (z-score),[10],-0.779
same,glycan array binding signal (z-score),[11],0.433
same,glycan array binding signal (z-score),[12],-1.01
same,glycan array binding signal (z-score),[13],-0.146
same,glycan array binding signal (z-score),[14],-1.21
same,glycan array binding signal (z-score),[15],-1.04
same,glycan array binding signal (z-score),[16],0.784
same,glycan array binding signal (z-score),Gal(b1-3)GlcNAc6S,-0.312
same,glycan array binding signal (z-score),[17],-0.584
same,glycan array binding signal (z-score),[18],0.758
same,glycan array binding signal (z-score),[19],0.683
same,glycan array binding signal (z-score),[20],-1.25
same,glycan array binding signal (z-score),[21],0.778
same,glycan array binding signal (z-score),[22],-0.179
same,glycan array binding signal (z-score),[23],-0.568
same,glycan array binding signal (z-score),[24],0.179
same,glycan array binding signal (z-score),[25],-0.296
same,glycan array binding signal (z-score),[26],-1.44
same,glycan array binding signal (z-score),Gal(b1-4)Gal,-0.198
same,glycan array binding signal (z-score),[27],-1.33
same,glycan array binding signal (z-score),[28],-1.05
same,glycan array binding signal (z-score),Gal(b1-4)Glc,0.499
same,glycan array binding signal (z-score),Gal(b1-4)Glc6S,0.007
same,glycan array binding signal (z-score),Gal(b1-4)GlcNAc,-0.875
same,glycan array binding signal (z-score),[29],-1.47
same,glycan array binding signal (z-score),Gal(b1-4)GlcNAc(b1-2)Man,0.255
same,glycan array binding signal (z-score),[30],-0.25
same,glycan array binding signal (z-score),[31],0.355

# As a working copy, part of the list above.
binder,measurement,setting,value
B1,glycan array binding signal (z-score),[1],0.426
same,glycan array binding signal (z-score),[2],2.75
